Experimental findings from publication doi:10.1101/2025.09.08.674928 are described below.

No constants are given. Whether binding was seen depends on the method and setting. Binding seen in cells or lysates may run through a third protein. Here binding means that the protein was enriched with, or labelled near, the bait; the list need not be complete.

The target of the assay is SARS-CoV-2 Nsp3 (from virus infection) (SARS-CoV-2) (UniProt P0DTD1). The assay is described as follows: affinity purification with mass spectrometry.

B1: transketolase (TKT) (enzyme, UniProt P29401 1-623)
chain: MESYHKPDQQKLQALKDTANRLRISSIQATTAAGSGHPTSCCSAAEIMAVLFFHTMRYKSQDPRNPHNDRFVLSKGHAAPILYAVWAEAGFLAEAELLNLRKISSDLDGHPVPKQAFTDVATGSLGQGLGAACGMAYTGKYFDKASYRVYCLLGDGELSEGSVWEAMAFASIYKLDNLVAILDINRLGQSDPAPLQHQMDIYQKRCEAFGWHAIIVDGHSVEELCKAFGQAKHQPTAIIAKTFKGRGITGVEDKESWHGKPLPKNMAEQIIQEIYSQIQSKKKILATPPQEDAPSVDIANIRMPSLPSYKVGDKIATRKAYGQALAKLGHASDRIIALDGDTKNSTFSEIFKKEHPDRFIECYIAEQNMVSIAVGCATRNRTVPFCSTFAAFFTRAFDQIRMAAISESNINLCGSHCGVSIGEDGPSQMALEDLAMFRSVPTSTVFYPSDGVATEKAVELAANTKGICFIRTSRPENAIIYNNNEDFQVGQAKVVLKSKDDQVTVIGAGVTLHEALAAAELLKKEKINIRVLDPFTIKPLDRKLILDSARATKGRILTVEDHYYEGGIGEAVSSAVVGEPGITVTHLAVNRVPRSGKPAELLKMFGIDRDAIAQAVRGLITKA
As to B1, the binding entry is on record as “binds”.
